Earlier results, collected in patent US8871443B2, “Schizophrenia-related isoform of KCNH2 and development of antipsychotic drugs” (The United States of America, as represented by the …, priority 2007, dated 2014).
At least one compound was matched to its structure with a doubt left.

System: patients with schizophrenia
Conditions: CATIE trial, all drug arms; cited from earlier work

In the case of `Cc1cc2c(s1)Nc1ccccc1N=C2N1CCN(C)CC1` [olanzapine], the “time to discontinuation compared with the other drug arms” value is given as “longest time to discontinuation in the study”.
